No constants are given. Whether binding was seen depends on the method and setting. In cells and extracts the contact can be indirect. A result given as binding can be weak or reduced; the word gives no strength. Sequences can lack the tags named with a protein.
B1: HA-tagged SERBP1 (protein, UniProt Q9CY58 1-407)
chain: MPGHLQEGFGCVVTNRFDQLFDDESDPFEVLKAAENKKKEAGGGGVGGPGAKSAAQAAAQTNSNAAGKQLRKESQKDRKNPLPPSVGVADKKEETQPPVALKKEGIRRVGRRPDQQLQGDGKLIDRRAERRPPRERRFEKPLEEKGEGGEFSVDRPIIERPIRGRGGLGRGRGGRGRGMGRGDGFDSRGKREFDRHSGSDRSSFSHYSGLKHEDKRGGSGSHNWGTVKDELTESPKYIQKQISYNCSDLDQSNVTEETPEGEEHPVADTENKENEVEEVKEEGPKEMTLDEWKAIQNKDRAKVEFNIRKPNEGADGQWKKGFVLHKSKSEEAHAEDSVMDHHFRKPANDITSQLEINFGDLGRPGRGGRGGRGGRGRGGRPNRGSRTDKSSASAPDVDDPEAFPALA
B2: HA-tagged HABP4 (protein, UniProt Q9JKS5 1-411)
chain: MKGALGSPVAAAGAAMQETFGCVVANRFHQLLDDESDPFDILREAEHRRQQQLQRKRRDEAAAASGAGHRGGRSPAVASGHRPGAGGRRESQKERKSLAASGAQQPDSPGGPQPPGQKRTPRRGEQQGWNDNRGTDVVLERAERRSYREYRPYETERQADLPVEKFTDEKPVDRFDRDRPLRGRGGPRGGLRSRGRGGPGNRAFDSFDQRGKRDFERYSSNDKTNRMEDSMGGCGIRPWGSGKDTSDTEPPAPMEETSMMEECQGTLDEESAAKVPELEVEEENQVQEMTLDEWKNLQEQTRPKPEFNIRKPESTVPSKAVVIHKSRYRDDMVKEDYEDESHVFRKAANDITSQLEINFGNLPRPGRGARGSTRGGRGRMRRTENYGPRAEVVTQDVAPNPDDPEDFPALA

Experiments:
[1] = target: T1, MYC-tagged SERBP1 (mouse) (UniProt Q9CY58); test: co-IP; HEK293T cells transfected with tagged proteins; lysis in 25 mM Tris-Cl pH7.4, 150 mM NaCl, 1% Triton X-100; MYC antibody pre-bound to Protein A Sepharose, 8 hours at 4°C; Western blot with HA or SERBP1 antibody
T1 sequence: B1 chain

[2] = target: MYC-tagged SPIN1 (wild type) (mouse); test: as above

| Molecule | binding [1] | binding [2] |
| --- | --- | --- |
| HA-tagged SPIN1 (mouse) | binds |  |
| B1 |  | binds |
| B2 |  | binds |
